PubChem BioAssay AID1259308 – NCATS – 2017
In all, the deposit lists about 59,000 reagents; below is an unselected part. Over the whole deposit, about 1,510 (2.6%) got an active call. 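Calls use total luciferase alone and ignore viability, so some active siRNAs may act by altering cell number.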 Further read-outs or replicates are left out here. No sequences are given here.

- Aim: 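Genes whose loss raises luciferase production in HEK293 cells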 (primary screen)
- Cell system: human HEK293 embryonic kidney cells stably expressing firefly luciferase (HEK-CMV-Luc2-Hygro)
- Reagent: single siRNA against human genes, 0.8 pmol siRNA per well
- Time to read-out: 72 h
- Detection: 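Luciferase light (ONE-Glo) measured on one replicate plate set and viability (CellTiter-Glo) on the other, scaled to a negative control siRNA, with robust z-scores and luciferase per cell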
- Scale: total luciferase, z-score: higher = more reporter protein produced
- Call rule: 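Active when the median/MAD z-score for overall luciferase is greater than 3; a gene was taken forward for validation with new siRNAs if at least two of its three siRNAs passed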
- Calls: active = raised luciferase; inactive = no rise

no.	Gene	PubChem SID	total luciferase, z-score	activity call
1	TMUB2	SID160748627	-0.673	inactive
2	TMUB2	SID160748628	-0.905	inactive
3	TMUB2	SID160748629	1.06	inactive
4	FIGNL2	SID160767367	-0.071	inactive
5	FIGNL2	SID160767368	-0.39	inactive
6	FIGNL2	SID160767369	0.255	inactive
7	CCP110	SID160722951	-1.13	inactive
8	CCP110	SID160722952	-0.287	inactive
9	CCP110	SID160722953	1.99	inactive
10	TMEM141	SID160724655	-0.603	inactive
11	TMEM141	SID160724656	0.615	inactive
12	TMEM141	SID160753120	1.79	inactive
13	SMIM21	SID160763233	4.02	active
14	SMIM21	SID160763235	-0.593	inactive
15	SMIM21	SID160763236	-0.712	inactive

4 entries from above in another layout:
TMEM141 [SID160753120]
- total luciferase, z-score: 1.79
- activity call: inactive

SMIM21 [SID160763233]
- total luciferase, z-score: 4.02
- activity call: active

SMIM21 [SID160763235]
- total luciferase, z-score: -0.593
- activity call: inactive

SMIM21 [SID160763236]
- total luciferase, z-score: -0.712
- activity call: inactive

The list goes on.
no.	Gene	PubChem SID	total luciferase, z-score	activity call
16	SPAG5	SID160728864	0.484	inactive
17	SPAG5	SID160728865	0.121	inactive
18	SPAG5	SID160728866	0.0553	inactive
19	FLAD1	SID160750344	-0.785	inactive
20	FLAD1	SID160750345	0.169	inactive
21	FLAD1	SID160750346	-0.136	inactive
22	MMD	SID160736490	1.8	inactive
23	MMD	SID160736491	-0.806	inactive
24	MMD	SID160736492	-1.4	inactive
